The results in this text go back to US12286424B2, “Small molecule inhibitors of galectin-3” (BRISTOL-MYERS SQUIBB COMPANY, priority 2020, dated 2025).

Chains of the proteins cited; added tags and fusions are not shown.
UniProt P17931, whole entry: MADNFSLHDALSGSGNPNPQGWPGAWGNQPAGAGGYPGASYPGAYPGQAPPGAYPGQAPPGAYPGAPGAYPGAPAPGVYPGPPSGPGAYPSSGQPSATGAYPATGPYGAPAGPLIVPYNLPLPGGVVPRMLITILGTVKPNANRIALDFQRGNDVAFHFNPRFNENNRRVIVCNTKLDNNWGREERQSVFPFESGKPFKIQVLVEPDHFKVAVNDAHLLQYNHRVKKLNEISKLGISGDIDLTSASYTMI

SMILES strings stand for the structures. The match of structure and compound is tentative.

This test has as its target hGalectin-3 (Homo sapiens, UniProt P17931). The experiment in a line: Gal-3 ELISA assay (hGalectin-3 neutralization binding to asialofetuin). The settings on record: read-out: hGal-3 IC50; Table 2. In general terms: ELISA stands for enzyme-linked immunosorbent assay.

Take `CO[C@@H]1[C@@H](n2cc(-c3cccc(F)c3)nn2)[C@@H](O)[C@@H](CO)O[C@H]1C(=O)N1C[C@@H]2C[C@H]1CN2c1ccc2c(c1)OCO2`: the IC50 – broadly, the concentration needed to halve the response being measured – stood at 200 nM.
